No constants are given. Whether binding was seen depends on the method and setting. Binding seen in cells or lysates may run through a third protein. Some binding calls cover weakened binding; strength is not graded here. Where a sequence is shown, tags or fusion partners need not be part of it.
What was measured:
[1] = molecular target: T1, C3G-mEGFP wild type (HEK293T, transient) (human) (UniProt Q13905); test: co-IP; HEK293T cells transiently expressing C3G-mEGFP, lysed 48 h after transfection; abGFP4 nanobody resin against GFP; endogenous CrkL by western blot
T1 sequence: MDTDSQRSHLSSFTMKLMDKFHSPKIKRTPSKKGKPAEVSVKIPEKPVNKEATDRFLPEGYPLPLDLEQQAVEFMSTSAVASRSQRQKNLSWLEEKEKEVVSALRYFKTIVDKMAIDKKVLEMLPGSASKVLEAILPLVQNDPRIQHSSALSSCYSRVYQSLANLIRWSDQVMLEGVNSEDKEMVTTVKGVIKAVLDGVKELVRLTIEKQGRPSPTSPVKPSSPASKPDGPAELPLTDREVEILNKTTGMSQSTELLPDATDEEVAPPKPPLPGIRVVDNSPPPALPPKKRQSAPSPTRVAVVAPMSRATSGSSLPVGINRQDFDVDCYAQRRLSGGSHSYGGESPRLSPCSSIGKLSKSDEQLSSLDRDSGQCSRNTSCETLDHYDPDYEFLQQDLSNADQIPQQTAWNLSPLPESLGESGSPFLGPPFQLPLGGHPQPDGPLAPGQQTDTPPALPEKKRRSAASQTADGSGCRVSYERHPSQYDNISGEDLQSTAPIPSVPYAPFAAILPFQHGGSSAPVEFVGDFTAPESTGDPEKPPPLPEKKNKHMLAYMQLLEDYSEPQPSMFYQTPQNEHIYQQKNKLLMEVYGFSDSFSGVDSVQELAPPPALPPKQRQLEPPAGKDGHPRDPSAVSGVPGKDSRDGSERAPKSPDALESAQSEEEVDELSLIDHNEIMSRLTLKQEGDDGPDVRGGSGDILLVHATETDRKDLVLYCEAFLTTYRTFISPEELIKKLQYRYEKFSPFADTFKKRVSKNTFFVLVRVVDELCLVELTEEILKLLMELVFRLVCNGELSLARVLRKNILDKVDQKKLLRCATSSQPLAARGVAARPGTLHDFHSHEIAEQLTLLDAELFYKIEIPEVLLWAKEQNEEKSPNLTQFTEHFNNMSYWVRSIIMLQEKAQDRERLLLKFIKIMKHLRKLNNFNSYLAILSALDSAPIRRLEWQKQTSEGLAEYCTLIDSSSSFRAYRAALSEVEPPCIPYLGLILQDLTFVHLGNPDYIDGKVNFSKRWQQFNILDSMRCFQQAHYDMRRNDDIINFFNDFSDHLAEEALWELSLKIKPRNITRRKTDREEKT

By UniProt entry, the sequences of proteins in these tests, tags left out.
UniProt P46109: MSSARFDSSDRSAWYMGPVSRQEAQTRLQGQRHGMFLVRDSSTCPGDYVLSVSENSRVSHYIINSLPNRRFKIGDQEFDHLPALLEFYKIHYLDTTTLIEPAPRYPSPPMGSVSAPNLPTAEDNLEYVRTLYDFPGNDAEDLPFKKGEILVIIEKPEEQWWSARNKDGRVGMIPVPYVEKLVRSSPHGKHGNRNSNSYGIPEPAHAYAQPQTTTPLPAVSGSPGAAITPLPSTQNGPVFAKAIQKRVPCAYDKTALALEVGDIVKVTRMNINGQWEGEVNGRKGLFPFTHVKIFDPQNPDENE

[2] = molecular target: T2, C3G-mEGFP wild type (Jurkat, stable) (human) (UniProt Q13905); test: co-IP; Jurkat cells stably expressing C3G-mEGFP; lysate (0.5% Triton X-100, 150 mM NaCl) on abGFP4 nanobody resin against GFP overnight at 4 °C; endogenous CrkL by western blot
T2 sequence: T1 sequence

| binding [1] | binding [2] | Substance |
| --- | --- | --- |
| binds | – | endogenous CrkL (HEK293T cells) (from UniProt P46109 1-303) |
| – | binds | endogenous CrkL (Jurkat cells) (from UniProt P46109 1-303) |
